Source: PubChem BioAssay AID912 (NCATS, 2007).

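Uptake of anthrax lethal toxin into cultured cells, read by FRET (460/530 nm ratio) and reported from the 460 nm channel; the cell line is not named here.
Each compound was tested as a concentration series from about 0.0005 to 40 µM.
The number is the fitted AC50 of the 460 nm signal alone; lower values mean a more potent effect. A falling signal goes with compounds filed as inhibitors or cytotoxic, a rising one with activators or fluorescent compounds (inferred from the filed classes).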

Values are in µM.
Common to all entries: measured here: 460 nm channel.
Part of the compounds only, not a random draw; the main read-out is not listed here.
Potencies fitted to partial, single-point or poorly fitting curves are rough.
The first word of each remark tells which way the curve ran; it can be opposite to the aim of the assay.

SMILES,AC50 (µM),curve as filed
COC(=O)c1ccc(C(NC(=O)OCc2ccccc2)/C(=C/[C@@H](C)C(=O)NCc2cc(F)cc(F)c2)c2cccnc2)cc1 (stereo partly shown),25.12,"rising, single point"
C=C(C)[C@H]1Cc2c(ccc3c2O[C@H]2COc4cc(OC)c(OC)cc4[C@@H]2C3=O)O1,3.162,"falling, full curve"
COc1ccc(OC)c(C2C(C#N)=C(N)Oc3c2c(C)nn3-c2cccc(Cl)c2)c1 (stereo not shown),1.585,"falling, partial curve, poor fit"
OC(c1ccc(Cl)cc1Cl)C(Cc1cccnc1)n1cncn1 (stereo not shown),0.003981,"falling, full curve, poor fit"
CCNc1ncc2nc(-c3cc(F)cc(F)c3)c(=O)n(-c3ccc(OC)cc3)c2n1,3.162,"rising, full curve"
OCCN(CCO)c1nc(N2CCCCC2)c2nc(N(CCO)CCO)nc(N3CCCCC3)c2n1,1.259,"rising, full curve, poor fit"
CCOC(=O)c1ccc(NC(=O)CSc2nnc(Cc3cccs3)n2C)cc1,12.59,"rising, single point"
COCC(=O)N1CCC2(CCCN(c3ccccc3)C2)CC1,10,"rising, single point"
Cn1cc(S(=O)(=O)N2CCc3ccccc3C2)c(=O)n(C)c1=O,5.012,"rising, single point"
CCCC(c1nnnn1CS(=O)(=O)c1ccc(C)cc1)N1CCN(c2ccccc2)CC1 (stereo not shown),31.62,"falling, single point"
Cc1cc(NC(=O)c2ccc(NC(=O)c3cccs3)cc2)no1,1.585,"rising, single point"
O=S(=O)(c1cccc2cccnc12)N1CCc2ccccc21,0.02512,"falling, full curve, poor fit"
O=c1c(CCc2ccccc2)nc2cnc(N3CCOCC3)nc2n1Cc1ccc(F)cc1,3.981,"falling, partial curve, poor fit"
O=C(c1ccco1)N1CCN(S(=O)(=O)c2ccc(Oc3ccccc3)cc2)CC1,3.162,"rising, single point"
COc1ccc2[nH]cc(C(O)CN3CCN(c4ccccc4)CC3)c2c1 (stereo not shown),0.03981,"rising, full curve"
COc1ccc(CC(=O)NC2CCN(CC(=O)Nc3ccc4c(c3)OCCO4)CC2)cc1OC,0.01,"falling, full curve"
O=c1c(-c2cccs2)nc2cnc(N3CCOCC3)nc2n1CCc1ccccc1,12.59,"rising, partial curve"
COc1ccccc1NC(=O)CN1CCC(n2c(C)nc3cc(F)ccc32)CC1,7.943,"rising, partial curve"
CNC(=O)[C@@H]1C[C@H]1[C@@H](NP(=O)(c1ccccc1)c1ccccc1)c1ccccc1,5.012,"rising, single point"
CCOC(=O)C1=C(c2ccccc2)Nc2ncnn2C1c1ccccn1 (stereo not shown),0.01259,"rising, full curve, poor fit"
O=C(CSc1nnnn1C1CCCC1)NCc1ccc2c(c1)OCO2,31.62,"falling, single point"
COc1ccccc1N1CCN(C(=O)C2CCC(Cn3c(=S)[nH]c4ccccc4c3=O)CC2)CC1 (stereo not shown),0.7943,"rising, full curve"
O=C(c1cc(-c2cccc(O)c2)on1)N1CCN(C(c2ccccc2)c2ccccc2)CC1,3.162,"falling, full curve"
O=C(Nc1cccc(F)c1)N1CCCC2(CCN(S(=O)(=O)c3ccccc3)CC2)C1,3.162,"falling, partial curve, poor fit"
CSC1=N/C(=C\C=C\c2cccs2)C(=O)S1,31.62,"falling, single point"
CC(C)Cc1cc(C(=O)Nc2cc(Br)ccc2O)no1,3.162,"falling, full curve"
O=C(NCc1ccc2c(c1)OCO2)c1c(F)c(F)c(F)c(F)c1F,3.162,"rising, full curve"
COc1cccc(NC(=O)c2ccc(CN3CCN(c4ccccc4)CC3)cc2)c1,7.943,"falling, partial curve"
COCCn1c(=O)c(-c2ccc(OC)cc2)nc2cnc(Oc3ccccc3)nc21,0.631,"falling, single point"
COC(=O)C1=C(N)Oc2cc(C)n(Cc3cccnc3)c(=O)c2C1c1cc(OC)ccc1OC (stereo not shown),0.1,"rising, full curve, poor fit"
c1cncc(-c2nnc(SCc3nc4ccccc4[nH]3)o2)c1,0.1259,"falling, full curve, poor fit"
CCC(=O)NC(=Nc1nc2ccccc2s1)NC(=O)CC,0.1259,"rising, full curve"
Cc1nc2scc(-c3ccco3)c2c(=O)n1/N=C/N(C)C,15.85,"falling, single point"
CNc1ccc2oc(C[C@@H]3O[C@@]4(CC[C@H]3C)O[C@@H]([C@@H](C)C(=O)c3ccc[nH]3)[C@@H](C)C[C@H]4C)nc2c1C(=O)O,1.995,"falling, full curve"
CCCCNC(=O)C(C#N)c1nc2ccccc2nc1N1CCCC1 (stereo not shown),3.162,"falling, single point"
CCOc1ccccc1Nc1ccc(C(=O)O)cc1NC(C)=O,31.62,"falling, single point"
C/C(=C\C(=O)c1cccnc1)Nc1ccc(C)c(C)c1,12.59,"falling, partial curve"
CCOC(=O)C(NCc1ccccc1OC)(NC(C)=O)C(F)(F)F (stereo not shown),1.995,"rising, partial curve"
CCCN1Cc2cccc(C(=O)Nc3ccc4c(c3)OCCO4)c2C1=O,12.59,"falling, partial curve"
O=S(=O)(O)c1cc(O)c2c(O)c(N=Nc3cccc4ccccc34)c(S(=O)(=O)O)cc2c1,1,"rising, single point"
CN(C)c1nc(Nc2ccc(Cl)cc2)nc(OCC#N)n1,0.3162,"falling, full curve"
Cc1cc(-c2nnc3sc(-c4ccc(Cl)cc4Cl)nn23)n[nH]1,10,"falling, partial curve"
CN1CCN(c2ncc3nc(-c4cc(F)cc(F)c4)c(=O)n(CCc4ccccc4)c3n2)CC1,1,"rising, full curve"
CC1(C)CC(=O)C2=C(C1)OC(N)=C(C#N)C2c1cccc(OC(=O)c2ccco2)c1 (stereo not shown),25.12,"rising, single point"
CCOC(=O)C(C(C)=O)c1c(Br)c(O)c(O)c2c(C(=O)c3ccc(C)cc3)coc12 (stereo not shown),25.12,"rising, single point"
Cc1ccc(OCC(=O)Nc2cccc(-c3nnc(-c4ccccc4)o3)c2)cc1,0.07943,"falling, full curve"
COC(=O)c1c(N)n(-c2ccc(NC(C)=O)cc2)c2nc3ccccc3nc12,5.012,"rising, single point"
O=C(CCN1CCOCC1)Nc1ccc(F)cc1F,3.162,"falling, single point"
CCOC(=O)C1CCN(C(=O)c2ccc3c(c2)OCO3)CC1,0.05012,"rising, partial curve, poor fit"
O=C(CSc1nnc(-c2ccccc2)o1)Nn1cnnc1,5.012,"falling, partial curve, poor fit"
O=c1c(-c2ccc(F)cc2)nc2cnc(Nc3ccccc3)nc2n1C[C@H]1CCCO1,12.59,"rising, partial curve"
Cc1cccc(-n2nnc(C(=O)N3CCc4ccccc4C3)c2N)c1,12.59,"rising, partial curve"
Cc1cccn2c(=O)c3cc(C(=O)NCCCn4ccnc4)n(C)c3nc12,5.012,"falling, partial curve"
COc1cc2nc(CN3CCN(c4ncc(C(F)(F)F)cc4Cl)CC3)[nH]c(=O)c2cc1OC,5.012,"rising, single point"
CC1CCC(n2c(=S)[nH]c3ccccc3c2=O)CC1 (stereo not shown),1,"falling, full curve"
O=C(NCCOC(=O)c1ccc(C(=O)OCCNC(=O)c2ccccc2)o1)c1ccccc1,6.31,"rising, partial curve"
COc1ccc(Cn2nnc3c(=O)[nH]c(C4CCCN(C(=O)c5ccccc5)C4)nc32)cc1 (stereo not shown),1.995,"rising, partial curve"

For reference, 5 entries once more:

| SMILES | AC50 (µM) | curve as filed |
|---|---|---|
| `CCOC(=O)C1=C(c2ccccc2)Nc2ncnn2C1c1ccccn1` (stereo not shown) | 0.01259 | rising, full curve, poor fit |
| `O=S(=O)(O)c1cc(O)c2c(O)c(N=Nc3cccc4ccccc34)c(S(=O)(=O)O)cc2c1` | 1 | rising, single point |
| `CNC(=O)[C@@H]1C[C@H]1[C@@H](NP(=O)(c1ccccc1)c1ccccc1)c1ccccc1` | 5.012 | rising, single point |
| `CCOC(=O)c1ccc(NC(=O)CSc2nnc(Cc3cccs3)n2C)cc1` | 12.59 | rising, single point |
| `COc1ccc(CC(=O)NC2CCN(CC(=O)Nc3ccc4c(c3)OCCO4)CC2)cc1OC` | 0.01 | falling, full curve |